Assay results as given in the supplement of paper PMC10849652.
This is one part of the list.

The chains behind the UniProt entries cited, without tags or fusion partners. Where a name states a change or a piece, a line headed by the entry shows the natural chain unless it says otherwise.
UniProt P07602: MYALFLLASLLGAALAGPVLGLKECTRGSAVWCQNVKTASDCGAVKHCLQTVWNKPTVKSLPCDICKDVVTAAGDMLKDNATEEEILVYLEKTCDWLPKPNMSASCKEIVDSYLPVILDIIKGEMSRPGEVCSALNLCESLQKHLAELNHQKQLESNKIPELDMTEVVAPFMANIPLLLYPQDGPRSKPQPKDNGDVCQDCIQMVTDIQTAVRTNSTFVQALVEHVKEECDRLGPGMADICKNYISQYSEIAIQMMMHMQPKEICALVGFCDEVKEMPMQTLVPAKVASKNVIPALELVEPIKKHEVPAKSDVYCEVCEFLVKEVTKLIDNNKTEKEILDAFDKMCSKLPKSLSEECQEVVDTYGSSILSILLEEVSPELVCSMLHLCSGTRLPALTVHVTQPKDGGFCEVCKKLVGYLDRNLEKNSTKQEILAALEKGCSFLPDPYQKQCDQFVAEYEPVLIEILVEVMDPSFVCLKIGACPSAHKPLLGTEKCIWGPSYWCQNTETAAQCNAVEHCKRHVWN
UniProt P78330: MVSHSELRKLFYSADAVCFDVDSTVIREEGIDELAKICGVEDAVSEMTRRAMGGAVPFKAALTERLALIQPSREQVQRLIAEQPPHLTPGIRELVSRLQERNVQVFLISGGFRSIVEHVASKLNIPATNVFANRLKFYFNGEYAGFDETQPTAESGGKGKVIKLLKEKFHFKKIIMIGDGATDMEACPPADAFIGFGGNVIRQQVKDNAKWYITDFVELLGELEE
UniProt P20742, whole entry, looked up: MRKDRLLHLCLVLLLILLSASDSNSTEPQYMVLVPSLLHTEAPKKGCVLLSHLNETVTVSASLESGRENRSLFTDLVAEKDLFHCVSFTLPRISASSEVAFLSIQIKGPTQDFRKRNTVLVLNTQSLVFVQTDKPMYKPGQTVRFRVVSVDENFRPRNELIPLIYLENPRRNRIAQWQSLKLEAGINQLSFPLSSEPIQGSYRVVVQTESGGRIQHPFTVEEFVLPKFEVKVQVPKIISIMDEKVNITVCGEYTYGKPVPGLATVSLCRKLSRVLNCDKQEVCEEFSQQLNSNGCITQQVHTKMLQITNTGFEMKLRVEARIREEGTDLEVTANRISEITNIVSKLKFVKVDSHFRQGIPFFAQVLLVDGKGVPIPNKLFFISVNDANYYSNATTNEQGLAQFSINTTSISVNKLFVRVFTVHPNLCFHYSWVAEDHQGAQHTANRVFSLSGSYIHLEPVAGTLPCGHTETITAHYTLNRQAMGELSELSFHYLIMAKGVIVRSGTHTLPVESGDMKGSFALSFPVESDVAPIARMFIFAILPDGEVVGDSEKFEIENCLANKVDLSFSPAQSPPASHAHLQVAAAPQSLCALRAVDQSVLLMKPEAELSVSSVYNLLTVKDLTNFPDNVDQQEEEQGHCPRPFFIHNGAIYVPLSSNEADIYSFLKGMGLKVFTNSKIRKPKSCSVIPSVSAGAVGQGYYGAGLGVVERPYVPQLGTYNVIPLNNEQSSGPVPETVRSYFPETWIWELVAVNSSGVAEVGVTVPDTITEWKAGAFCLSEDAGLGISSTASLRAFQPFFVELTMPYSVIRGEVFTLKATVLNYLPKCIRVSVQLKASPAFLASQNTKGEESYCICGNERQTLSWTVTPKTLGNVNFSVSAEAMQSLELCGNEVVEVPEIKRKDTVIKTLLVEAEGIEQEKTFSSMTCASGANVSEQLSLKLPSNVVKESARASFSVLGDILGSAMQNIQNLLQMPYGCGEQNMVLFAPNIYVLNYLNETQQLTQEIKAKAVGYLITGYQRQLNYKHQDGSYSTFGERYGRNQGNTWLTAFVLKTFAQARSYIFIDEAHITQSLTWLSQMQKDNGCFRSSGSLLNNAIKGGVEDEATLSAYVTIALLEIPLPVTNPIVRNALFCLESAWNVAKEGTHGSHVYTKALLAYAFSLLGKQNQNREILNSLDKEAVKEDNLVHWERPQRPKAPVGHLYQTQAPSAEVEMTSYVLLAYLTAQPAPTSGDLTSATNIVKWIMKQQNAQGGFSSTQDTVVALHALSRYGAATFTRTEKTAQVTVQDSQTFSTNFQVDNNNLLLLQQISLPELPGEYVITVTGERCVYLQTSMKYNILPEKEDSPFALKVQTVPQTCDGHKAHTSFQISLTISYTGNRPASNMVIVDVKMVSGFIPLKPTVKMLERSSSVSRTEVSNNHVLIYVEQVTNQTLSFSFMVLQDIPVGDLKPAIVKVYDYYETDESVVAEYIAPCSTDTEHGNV
UniProt Q9H7Z7: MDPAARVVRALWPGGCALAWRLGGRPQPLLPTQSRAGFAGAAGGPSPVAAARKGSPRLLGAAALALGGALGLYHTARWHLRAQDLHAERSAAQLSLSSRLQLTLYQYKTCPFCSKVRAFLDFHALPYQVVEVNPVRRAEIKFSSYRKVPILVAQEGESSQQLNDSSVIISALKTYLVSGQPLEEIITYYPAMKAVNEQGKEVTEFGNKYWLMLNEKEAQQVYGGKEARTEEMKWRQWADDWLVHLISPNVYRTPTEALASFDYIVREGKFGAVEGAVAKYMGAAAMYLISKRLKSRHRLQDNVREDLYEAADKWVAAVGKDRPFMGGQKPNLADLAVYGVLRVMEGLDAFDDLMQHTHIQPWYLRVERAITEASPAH
UniProt P08575: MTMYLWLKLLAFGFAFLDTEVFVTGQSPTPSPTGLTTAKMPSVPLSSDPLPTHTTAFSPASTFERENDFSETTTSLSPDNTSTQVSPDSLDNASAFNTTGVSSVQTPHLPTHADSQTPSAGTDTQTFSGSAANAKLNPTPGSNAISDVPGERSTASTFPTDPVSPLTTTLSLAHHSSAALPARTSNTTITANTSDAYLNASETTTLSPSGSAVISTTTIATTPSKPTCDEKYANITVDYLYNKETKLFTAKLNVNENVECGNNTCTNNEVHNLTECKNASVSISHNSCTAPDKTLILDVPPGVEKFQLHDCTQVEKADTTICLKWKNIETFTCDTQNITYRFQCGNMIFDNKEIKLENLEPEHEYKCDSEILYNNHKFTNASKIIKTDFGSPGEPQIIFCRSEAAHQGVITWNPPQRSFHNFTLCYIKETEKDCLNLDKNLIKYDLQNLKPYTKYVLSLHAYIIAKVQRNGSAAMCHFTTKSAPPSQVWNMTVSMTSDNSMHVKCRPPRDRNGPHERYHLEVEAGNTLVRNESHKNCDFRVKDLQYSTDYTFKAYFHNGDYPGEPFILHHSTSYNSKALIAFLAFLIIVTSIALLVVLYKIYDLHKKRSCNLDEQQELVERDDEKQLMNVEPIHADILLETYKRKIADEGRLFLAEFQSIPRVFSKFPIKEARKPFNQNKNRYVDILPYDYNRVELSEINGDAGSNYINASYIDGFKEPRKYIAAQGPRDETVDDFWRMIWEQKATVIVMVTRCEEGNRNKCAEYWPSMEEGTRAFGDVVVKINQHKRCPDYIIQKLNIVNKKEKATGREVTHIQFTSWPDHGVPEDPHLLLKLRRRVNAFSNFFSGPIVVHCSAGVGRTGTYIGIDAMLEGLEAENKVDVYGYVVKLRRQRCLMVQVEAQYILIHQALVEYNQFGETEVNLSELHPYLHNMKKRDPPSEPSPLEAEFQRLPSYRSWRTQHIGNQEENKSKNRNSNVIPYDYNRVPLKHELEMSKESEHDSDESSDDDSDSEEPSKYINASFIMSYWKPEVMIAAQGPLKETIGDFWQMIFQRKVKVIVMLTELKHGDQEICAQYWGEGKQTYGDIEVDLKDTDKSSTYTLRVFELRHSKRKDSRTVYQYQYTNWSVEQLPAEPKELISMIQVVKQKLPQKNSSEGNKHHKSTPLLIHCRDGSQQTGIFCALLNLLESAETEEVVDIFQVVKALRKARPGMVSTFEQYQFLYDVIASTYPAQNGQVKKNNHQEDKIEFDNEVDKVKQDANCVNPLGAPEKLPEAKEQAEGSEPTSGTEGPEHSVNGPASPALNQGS
UniProt O75475: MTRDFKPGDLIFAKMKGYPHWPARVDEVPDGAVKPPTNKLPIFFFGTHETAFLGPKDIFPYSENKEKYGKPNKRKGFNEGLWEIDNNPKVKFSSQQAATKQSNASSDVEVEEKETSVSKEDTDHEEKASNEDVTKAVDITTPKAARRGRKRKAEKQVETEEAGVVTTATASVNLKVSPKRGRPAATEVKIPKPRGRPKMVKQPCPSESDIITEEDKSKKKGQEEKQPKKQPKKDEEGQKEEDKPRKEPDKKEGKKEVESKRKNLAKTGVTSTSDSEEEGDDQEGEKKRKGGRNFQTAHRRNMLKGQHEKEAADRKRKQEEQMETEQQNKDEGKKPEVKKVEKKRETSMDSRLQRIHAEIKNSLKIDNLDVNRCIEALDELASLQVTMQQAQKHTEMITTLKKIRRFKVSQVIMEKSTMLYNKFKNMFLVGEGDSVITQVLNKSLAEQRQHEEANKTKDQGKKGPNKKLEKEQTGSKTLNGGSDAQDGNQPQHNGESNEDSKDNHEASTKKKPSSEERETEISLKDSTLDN
UniProt P18433: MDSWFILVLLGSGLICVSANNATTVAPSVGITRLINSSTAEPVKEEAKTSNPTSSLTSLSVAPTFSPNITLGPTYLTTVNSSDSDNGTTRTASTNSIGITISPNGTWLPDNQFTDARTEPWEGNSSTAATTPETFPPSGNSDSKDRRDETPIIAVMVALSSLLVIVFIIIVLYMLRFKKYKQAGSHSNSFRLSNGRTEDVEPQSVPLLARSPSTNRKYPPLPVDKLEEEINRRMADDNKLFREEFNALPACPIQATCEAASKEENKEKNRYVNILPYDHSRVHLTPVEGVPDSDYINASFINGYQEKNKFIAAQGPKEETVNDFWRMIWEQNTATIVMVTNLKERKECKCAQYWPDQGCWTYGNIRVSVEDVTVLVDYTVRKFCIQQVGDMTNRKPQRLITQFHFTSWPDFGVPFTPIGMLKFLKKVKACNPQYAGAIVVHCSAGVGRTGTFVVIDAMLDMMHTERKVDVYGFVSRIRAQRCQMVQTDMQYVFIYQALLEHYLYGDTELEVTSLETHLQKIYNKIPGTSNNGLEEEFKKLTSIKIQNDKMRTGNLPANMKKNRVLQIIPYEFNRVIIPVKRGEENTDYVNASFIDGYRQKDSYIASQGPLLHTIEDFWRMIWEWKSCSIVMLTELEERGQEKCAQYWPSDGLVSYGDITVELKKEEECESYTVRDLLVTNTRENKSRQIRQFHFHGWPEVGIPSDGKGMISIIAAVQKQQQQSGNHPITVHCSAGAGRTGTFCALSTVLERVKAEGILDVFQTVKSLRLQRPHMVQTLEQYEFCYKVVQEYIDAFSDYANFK
UniProt Q9BZE2: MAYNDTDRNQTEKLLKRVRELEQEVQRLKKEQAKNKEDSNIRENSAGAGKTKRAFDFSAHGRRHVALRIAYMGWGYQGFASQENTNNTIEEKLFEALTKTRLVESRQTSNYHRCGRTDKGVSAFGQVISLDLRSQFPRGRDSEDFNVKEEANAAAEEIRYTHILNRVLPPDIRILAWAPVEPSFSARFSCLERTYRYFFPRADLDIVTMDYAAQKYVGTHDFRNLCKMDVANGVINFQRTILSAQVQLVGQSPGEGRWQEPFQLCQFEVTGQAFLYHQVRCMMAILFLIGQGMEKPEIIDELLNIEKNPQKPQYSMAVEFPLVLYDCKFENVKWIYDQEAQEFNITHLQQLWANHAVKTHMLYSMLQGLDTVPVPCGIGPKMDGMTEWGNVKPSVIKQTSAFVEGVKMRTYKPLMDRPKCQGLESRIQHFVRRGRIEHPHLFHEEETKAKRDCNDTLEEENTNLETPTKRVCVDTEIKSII
UniProt Q99436: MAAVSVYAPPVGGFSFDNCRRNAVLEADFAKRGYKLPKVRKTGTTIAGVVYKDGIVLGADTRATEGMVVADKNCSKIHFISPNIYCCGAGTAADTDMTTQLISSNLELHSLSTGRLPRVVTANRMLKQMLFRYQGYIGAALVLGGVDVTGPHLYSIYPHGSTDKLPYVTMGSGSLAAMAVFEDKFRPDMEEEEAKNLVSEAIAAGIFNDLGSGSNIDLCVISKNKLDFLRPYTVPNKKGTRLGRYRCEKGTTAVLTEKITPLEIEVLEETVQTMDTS
UniProt Q96I23: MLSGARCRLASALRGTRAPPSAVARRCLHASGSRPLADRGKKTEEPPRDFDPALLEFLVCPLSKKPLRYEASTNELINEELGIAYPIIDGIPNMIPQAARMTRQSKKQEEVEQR
UniProt O00487, whole entry, looked up: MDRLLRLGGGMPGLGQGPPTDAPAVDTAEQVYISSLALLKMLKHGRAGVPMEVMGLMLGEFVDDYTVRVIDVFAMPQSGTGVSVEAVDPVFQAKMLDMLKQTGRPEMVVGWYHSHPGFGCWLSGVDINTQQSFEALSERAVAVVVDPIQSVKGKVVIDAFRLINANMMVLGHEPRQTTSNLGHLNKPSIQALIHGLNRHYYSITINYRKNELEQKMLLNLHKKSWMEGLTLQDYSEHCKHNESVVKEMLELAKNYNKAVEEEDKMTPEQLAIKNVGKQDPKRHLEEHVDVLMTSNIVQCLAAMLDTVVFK
UniProt P20962: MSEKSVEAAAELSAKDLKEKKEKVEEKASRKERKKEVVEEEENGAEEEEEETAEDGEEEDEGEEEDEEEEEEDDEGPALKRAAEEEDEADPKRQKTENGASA

How the values were obtained:
Experiment in all cases: log2 fold change, soluble protein after heating vs DMSO (PISA); higher = thermal stabilisation; K562 cells, 10 uM, 30 min; active = over 0.2 and 3.5 SD of the protein, either way, in both replicates (recomputed)
[1] = compound: COC1=CC=C(C=C1)CN2C=CC3=C2C=C(C=C3)C(=O)NO
Method in brief: (§1)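 For each measurement, 10 μM compound was applied for 30 min to K562 cells at 2×10^6 cells/mL. Aliquots were heated for 3 min across 48°C-58°C, pooled, and extracted in PBS with 0.5% NP-40 at 4°C; the supernatant after 21,000xg for 90 min was soluble protein. This was quantified by TMTpro 16plex LC-MS/MS with channel sums equalised, and thermal stability was reported relative to control samples from duplicates, on a log2 fold-change scale.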

filanesib = compound: CON(C)C(=O)N1N=C(c2cc(F)ccc2F)S[C@@]1(CCCN)c1ccccc1 [filanesib]
Method in brief: as §1

zotarolimus = compound: CO[C@H]1C[C@@H]2CC[C@@H](C)[C@@](O)(O2)C(=O)C(=O)N2CCCC[C@H]2C(=O)O[C@H]([C@H](C)C[C@@H]2CC[C@H](n3cnnn3)[C@H](OC)C2)CC(=O)[C@H](C)/C=C(\C)[C@@H](O)[C@@H](OC)C(=O)[C@H](C)C[C@H](C)/C=C/C=C/C=C/1C [zotarolimus]
Method in brief: as §1

idasanutlin = compound: COc1cc(C(=O)O)ccc1NC(=O)[C@@H]1N[C@@H](CC(C)(C)C)[C@](C#N)(c2ccc(Cl)cc2F)[C@H]1c1cccc(Cl)c1F [idasanutlin]
Method in brief: as §1

alisertib = compound: COc1cc(Nc2ncc3c(n2)-c2ccc(Cl)cc2C(c2c(F)cccc2OC)=NC3)ccc1C(=O)O [alisertib]
Method in brief: as §1

[2] = compound: COc1cc2nc(-c3cc(F)ccc3O)nc(N[C@@H]3CNC[C@H]3C(C)(C)O)c2cc1OC
Method in brief: as §1

gefitinib = compound: COc1cc2ncnc(Nc3ccc(F)c(Cl)c3)c2cc1OCCCN1CCOCC1 [gefitinib]
Method in brief: as §1

[3] = compound: COc1cccc2cc(-c3nc([C@H]4CC[C@H](C(=O)O)CC4)n4ncnc(N)c34)[nH]c12
Method in brief: as §1

lapatinib = compound: CS(=O)(=O)CCNCc1ccc(-c2ccc3ncnc(Nc4ccc(OCc5cccc(F)c5)c(Cl)c4)c3c2)o1 [lapatinib]
Method in brief: as §1

pictilisib = compound: CS(=O)(=O)N1CCN(Cc2cc3nc(-c4cccc5[nH]ncc45)nc(N4CCOCC4)c3s2)CC1 [pictilisib]
Method in brief: as §1

[4] = compound: CS(=O)(=O)c1ccc(-c2cnc(N)c(C(=O)Nc3ccccc3)n2)cc1
Method in brief: as §1

crizotinib = compound: C[C@@H](Oc1cc(-c2cnn(C3CCNCC3)c2)cnc1N)c1c(Cl)ccc(F)c1Cl [crizotinib]
Method in brief: as §1

[5] = compound: C[C@@H]1COCCN1C2=NC(=NC(=C2)C3(CC3)S(=O)(=O)C)C4=C5C=CNC5=CC=C4
Method in brief: as §1

[6] = compound: C[C@H](C1=CC=C(C=C1)C(=O)NC2=C3C=CNC3=NC=C2)N
Method in brief: as §1

duvelisib = compound: C[C@H](Nc1ncnc2nc[nH]c12)c1cc2cccc(Cl)c2c(=O)n1-c1ccccc1 [duvelisib]
Method in brief: as §1

gandotinib = compound: Cc1cc(Nc2cc(CN3CCOCC3)c3nc(C)c(Cc4ccc(Cl)cc4F)n3n2)n[nH]1 [gandotinib]
Method in brief: as §1

tozasertib = compound: Cc1cc(Nc2cc(N3CCN(C)CC3)nc(Sc3ccc(NC(=O)C4CC4)cc3)n2)n[nH]1 [tozasertib]
Method in brief: as §1

[7] = compound: Cc1cc(SCc2sc(-c3ccc(C(F)(F)F)cc3)nc2C)ccc1OCC(=O)O
Method in brief: as §1

doramapimod = compound: Cc1ccc(-n2nc(C(C)(C)C)cc2NC(=O)Nc2ccc(OCCN3CCOCC3)c3ccccc23)cc1 [doramapimod]
Method in brief: as §1

ispinesib = compound: Cc1ccc(C(=O)N(CCCN)[C@@H](c2nc3cc(Cl)ccc3c(=O)n2Cc2ccccc2)C(C)C)cc1 [ispinesib]
Method in brief: as §1

Measured: log2 fold change

PSMA7 (UniProt O14818)
inactive: [1] -0.06 | filanesib 0.082 | zotarolimus 0.007 | idasanutlin -0.003 | alisertib -0.088 | [2] -0.023 | gefitinib -0.01 | [3] -0.011 | lapatinib 0.024 | pictilisib 0.056 | [4] 0.024 | crizotinib 0.049 | [5] -0.005 | [6] -0.021 | duvelisib -0.026 | gandotinib 0.066 | tozasertib 0.014 | [7] -0.018 | doramapimod 0.004 | ispinesib -0.014

PSAP isoform 3 (UniProt P07602)
inactive: [1] 0 | filanesib 0.011 | zotarolimus 0.022 | idasanutlin 0.011 | alisertib -0.014 | [2] -0.05 | gefitinib 0.015 | [3] 0.072 | lapatinib -0.045 | pictilisib 0.035 | [4] 0.037 | crizotinib -0.023 | [5] 0.138 | [6] -0.02 | duvelisib 0.069 | gandotinib -0.048 | tozasertib 0.033 | [7] 0.002 | doramapimod -0.016 | ispinesib 0.099

PSME3 isoform 2 (UniProt P61289)
inactive: [1] -0.002 | filanesib -0.042 | zotarolimus -0.028 | idasanutlin 0 | alisertib -0.055 | [2] -0.05 | gefitinib -0.003 | [3] 0.065 | lapatinib -0.008 | pictilisib -0.02 | [4] 0.007 | crizotinib 0.029 | [5] -0.013 | [6] -0.052 | duvelisib 0.001 | gandotinib 0.044 | tozasertib -0.022 | [7] -0.04 | doramapimod -0.017 | ispinesib 0.034

PSPH (UniProt P78330)
inactive: [1] 0.016 | filanesib -0.035 | zotarolimus 0.036 | idasanutlin -0.033 | alisertib -0.041 | [2] 0.071 | gefitinib -0.005 | [3] 0.085 | lapatinib -0.048 | pictilisib 0.094 | [4] 0.022 | crizotinib 0.054 | [5] 0.096 | [6] -0.003 | duvelisib 0.054 | gandotinib 0.013 | tozasertib -0.035 | [7] 0 | doramapimod -0.037 | ispinesib 0.053

PZP (UniProt P20742)
inactive: [1] -0.096 | filanesib 0.081 | zotarolimus -0.132 | idasanutlin 0.074 | alisertib -0.121 | [2] -0.002 | gefitinib -0.164 | [3] 0.118 | lapatinib -0.03 | pictilisib -0.064 | [4] -0.07 | crizotinib 0.087 | [5] -0.069 | [6] 0.163 | duvelisib -0.18 | gandotinib 0.178 | tozasertib -0.057 | [7] -0.065 | doramapimod 0.145 | ispinesib -0.039

2 consecutive entries out of the list so far, quoted:
PSAP isoform 3 (UniProt P07602)
inactive: [1] 0 | filanesib 0.011 | zotarolimus 0.022 | idasanutlin 0.011 | alisertib -0.014 | [2] -0.05 | gefitinib 0.015 | [3] 0.072 | lapatinib -0.045 | pictilisib 0.035 | [4] 0.037 | crizotinib -0.023 | [5] 0.138 | [6] -0.02 | duvelisib 0.069 | gandotinib -0.048 | tozasertib 0.033 | [7] 0.002 | doramapimod -0.016 | ispinesib 0.099

PSME3 isoform 2 (UniProt P61289)
inactive: [1] -0.002 | filanesib -0.042 | zotarolimus -0.028 | idasanutlin 0 | alisertib -0.055 | [2] -0.05 | gefitinib -0.003 | [3] 0.065 | lapatinib -0.008 | pictilisib -0.02 | [4] 0.007 | crizotinib 0.029 | [5] -0.013 | [6] -0.052 | duvelisib 0.001 | gandotinib 0.044 | tozasertib -0.022 | [7] -0.04 | doramapimod -0.017 | ispinesib 0.034

Additional results:

PTGES2 (UniProt Q9H7Z7)
inactive: [1] -0.04 | filanesib -0.103 | zotarolimus -0.028 | idasanutlin -0.014 | alisertib -0.011 | [2] -0.121 | gefitinib 0.019 | [3] 0.065 | lapatinib 0.013 | pictilisib 0.009 | [4] 0.012 | crizotinib 0.021 | [5] 0.004 | [6] -0.038 | duvelisib 0.007 | gandotinib -0.008 | tozasertib 0.029 | [7] -0.024 | doramapimod 0.008 | ispinesib -0.048

PTPRC (UniProt P08575)
inactive: [1] -0.02 | filanesib 0.026 | zotarolimus -0.028 | idasanutlin -0.01 | alisertib -0.049 | [2] 0.063 | gefitinib 0.02 | [3] 0.041 | lapatinib -0.018 | pictilisib 0.087 | [4] 0.013 | crizotinib 0.156 | [5] 0.058 | [6] -0.102 | duvelisib 0.068 | gandotinib -0.035 | tozasertib -0.022 | [7] -0.006 | doramapimod 0.003 | ispinesib 0.141

PSIP1 (UniProt O75475)
inactive: [1] -0.051 | filanesib 0.151 | zotarolimus -0.002 | idasanutlin 0.13 | alisertib -0.084 | [2] 0.013 | gefitinib -0.032 | [3] -0.051 | lapatinib -0.008 | pictilisib -0.033 | [4] -0.07 | crizotinib 0.014 | [5] -0.265 | [6] 0.106 | duvelisib -0.068 | gandotinib 0.041 | tozasertib 0.01 | [7] -0.02 | doramapimod 0.021 | ispinesib -0.178

PTPRA (UniProt P18433)
inactive: [1] -0.056 | filanesib 0.036 | zotarolimus 0.016 | idasanutlin -0.003 | alisertib -0.028 | [2] 0.073 | gefitinib 0.035 | [3] 0.012 | lapatinib 0.03 | pictilisib 0.206 | [4] 0.013 | crizotinib 0.07 | [5] 0.059 | [6] -0.087 | duvelisib 0.068 | gandotinib -0.031 | tozasertib -0.026 | [7] 0.028 | doramapimod -0.002 | ispinesib 0.098

PSMB2 (UniProt P49721)
inactive: [1] 0.109 | filanesib 0.05 | zotarolimus -0.015 | idasanutlin -0.006 | alisertib -0.078 | [2] -0.077 | gefitinib -0.026 | [3] 0 | lapatinib 0.049 | pictilisib -0.076 | [4] 0.013 | crizotinib 0.138 | [5] 0.02 | [6] -0.007 | duvelisib -0.021 | gandotinib 0.024 | tozasertib 0.031 | [7] -0.006 | doramapimod 0.015 | ispinesib 0.121

PUS3 (UniProt Q9BZE2)
inactive: [1] -0.052 | filanesib -0.121 | zotarolimus -0.015 | idasanutlin -0.087 | alisertib -0.015 | [2] 0.015 | gefitinib -0.071 | [3] 0.061 | lapatinib -0.024 | pictilisib 0.038 | [4] -0.05 | crizotinib -0.153 | [5] 0.063 | [6] -0.047 | duvelisib 0.07 | gandotinib -0.133 | tozasertib -0.04 | [7] 0.057 | doramapimod 0.042 | ispinesib -0.066

PYCARD (UniProt Q9ULZ3)
inactive: [1] 0.078 | filanesib -0.053 | zotarolimus 0.044 | idasanutlin -0.089 | alisertib -0.021 | [2] -0.025 | gefitinib 0.025 | [3] 0.016 | lapatinib 0.031 | pictilisib 0.029 | [4] -0.066 | crizotinib 0.137 | [5] 0.189 | [6] -0.044 | duvelisib 0.064 | gandotinib -0.194 | tozasertib -0.005 | [7] -0.071 | doramapimod 0.033 | ispinesib 0.099

PSMB7 (UniProt Q99436)
inactive: [1] -0.05 | filanesib 0.039 | zotarolimus -0.025 | idasanutlin 0.034 | alisertib -0.008 | [2] -0.037 | gefitinib -0.013 | [3] 0.022 | lapatinib 0.061 | pictilisib -0.005 | [4] 0.046 | crizotinib 0.067 | [5] -0.055 | [6] 0.037 | duvelisib -0.065 | gandotinib 0.132 | tozasertib 0.001 | [7] 0.004 | doramapimod 0.005 | ispinesib 0.078

PYURF (UniProt Q96I23)
inactive: [1] -0.014 | filanesib -0.12 | zotarolimus -0.048 | idasanutlin 0.035 | alisertib -0.057 | [2] -0.121 | gefitinib -0.05 | [3] 0.023 | lapatinib -0.077 | pictilisib 0.037 | [4] -0.016 | crizotinib 0.064 | [5] 0.031 | [6] 0.032 | duvelisib 0.083 | gandotinib 0.1 | tozasertib -0.043 | [7] -0.111 | doramapimod -0.028

PSMD14 (UniProt O00487)
inactive: [1] -0.011 | filanesib -0.018 | zotarolimus 0.012 | idasanutlin -0.003 | alisertib -0.046 | [2] -0.074 | gefitinib -0.018 | [3] -0.052 | lapatinib 0.086 | pictilisib -0.021 | [4] 0.037 | crizotinib -0.026 | [5] 0.041 | [6] 0.102 | duvelisib -0.068 | gandotinib -0.009 | tozasertib 0.034 | [7] 0.024 | doramapimod 0.076 | ispinesib -0.016

PTMS (UniProt P20962)
inactive: [1] 0.081 | filanesib -0.062 | zotarolimus -0.029 | idasanutlin 0.025 | alisertib -0.071 | [2] -0.149 | gefitinib -0.013 | [3] 0.018 | lapatinib 0.051 | pictilisib 0.02 | [4] -0.025 | crizotinib -0.014 | [5] 0.034 | [6] -0.039 | duvelisib 0.022 | gandotinib 0.055 | tozasertib -0.019 | [7] -0.041 | doramapimod 0.004 | ispinesib 0.052
